Assay results from patent US20120100561A1.
These are yes or no findings as the source states them, for the method shown. For part of these data: Binding seen in cells or lysates may run through a third protein. Some binding calls cover weakened binding; strength is not graded here.

Chains of the proteins cited; added tags and fusions are not shown. Lines headed by an entry give the natural chain unless they say otherwise; changes in a name come on top.
UniProt P08134: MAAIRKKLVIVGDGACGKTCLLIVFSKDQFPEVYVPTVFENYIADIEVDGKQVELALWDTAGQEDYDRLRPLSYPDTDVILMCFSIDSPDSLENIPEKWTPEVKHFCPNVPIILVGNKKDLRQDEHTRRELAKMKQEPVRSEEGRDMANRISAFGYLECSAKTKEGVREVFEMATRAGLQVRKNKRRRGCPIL
UniProt Q6P5Z2: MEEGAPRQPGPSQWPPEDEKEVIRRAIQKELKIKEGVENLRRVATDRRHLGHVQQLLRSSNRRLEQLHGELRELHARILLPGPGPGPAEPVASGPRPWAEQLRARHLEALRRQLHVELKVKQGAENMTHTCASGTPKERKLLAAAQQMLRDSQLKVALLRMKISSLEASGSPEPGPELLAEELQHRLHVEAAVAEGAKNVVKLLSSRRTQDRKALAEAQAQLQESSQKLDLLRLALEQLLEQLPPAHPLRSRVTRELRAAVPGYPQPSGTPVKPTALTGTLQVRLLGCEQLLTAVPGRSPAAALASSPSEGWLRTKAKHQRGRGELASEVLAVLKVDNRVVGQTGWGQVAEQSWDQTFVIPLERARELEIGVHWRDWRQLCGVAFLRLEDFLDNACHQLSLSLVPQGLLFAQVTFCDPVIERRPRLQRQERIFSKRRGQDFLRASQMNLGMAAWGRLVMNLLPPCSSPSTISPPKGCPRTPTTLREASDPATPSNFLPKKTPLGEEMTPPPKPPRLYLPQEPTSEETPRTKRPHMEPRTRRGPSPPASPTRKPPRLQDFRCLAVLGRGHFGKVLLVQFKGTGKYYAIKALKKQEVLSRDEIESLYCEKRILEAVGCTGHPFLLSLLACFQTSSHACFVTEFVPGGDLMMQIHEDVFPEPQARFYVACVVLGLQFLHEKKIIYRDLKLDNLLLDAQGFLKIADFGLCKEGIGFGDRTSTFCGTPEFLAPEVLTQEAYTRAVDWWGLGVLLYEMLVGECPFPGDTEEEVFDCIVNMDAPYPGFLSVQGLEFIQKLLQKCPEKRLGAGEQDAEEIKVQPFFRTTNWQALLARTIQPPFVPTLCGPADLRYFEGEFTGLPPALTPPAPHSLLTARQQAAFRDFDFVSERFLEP

Key:
[1] = molecular target: Myc-RhoC (N-terminal Myc epitope-tagged full-length human RhoC) (human) (UniProt P08134); assay: anti-Flag immunoprecipitation, Western blot (FIG. 4, panel B)
[2] = molecular target: Myc-RhoC (N-terminal Myc epitope-tagged full-length human RhoC) (human) (UniProt P08134); assay: anti-Flag M2 co-immunoprecipitation from transfected PC3 cells, Western blot
[3] = molecular target: Myc-RhoC (N-terminal Myc epitope-tagged full-length human RhoC) (human) (UniProt P08134); assay: anti-Flag M2 co-immunoprecipitation from transfected HEK293T cells, Western blot

Measured: binding

Flag-PKN3 wt (N-terminal Flag epitope-tagged full-length kinase active human PKN3) (from UniProt Q6P5Z2 1-889) (enzyme)
binds: all assays above
